These results are taken from publication PMC12847774, “SERPINB3 enhances NPM1 sumoylation via inhibiting SENP3’s activity and promotes lung tumorigenesis” (Cell Death & Disease, 2025).

Sequences of proteins named here, by UniProt entry; tags and fusion partners are left off.
UniProt P06748: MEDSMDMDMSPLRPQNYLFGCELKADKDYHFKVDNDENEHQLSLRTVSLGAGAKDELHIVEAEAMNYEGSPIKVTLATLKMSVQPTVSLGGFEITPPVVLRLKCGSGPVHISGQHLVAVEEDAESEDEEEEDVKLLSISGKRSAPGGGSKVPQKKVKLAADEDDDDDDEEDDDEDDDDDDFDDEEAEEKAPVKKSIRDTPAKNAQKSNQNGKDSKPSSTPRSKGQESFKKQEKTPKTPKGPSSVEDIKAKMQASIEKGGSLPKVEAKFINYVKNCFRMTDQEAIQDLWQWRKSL

In this experiment the target is T1, Flag-BirA-SERPINB3 (UniProt P29508).
T1 sequence: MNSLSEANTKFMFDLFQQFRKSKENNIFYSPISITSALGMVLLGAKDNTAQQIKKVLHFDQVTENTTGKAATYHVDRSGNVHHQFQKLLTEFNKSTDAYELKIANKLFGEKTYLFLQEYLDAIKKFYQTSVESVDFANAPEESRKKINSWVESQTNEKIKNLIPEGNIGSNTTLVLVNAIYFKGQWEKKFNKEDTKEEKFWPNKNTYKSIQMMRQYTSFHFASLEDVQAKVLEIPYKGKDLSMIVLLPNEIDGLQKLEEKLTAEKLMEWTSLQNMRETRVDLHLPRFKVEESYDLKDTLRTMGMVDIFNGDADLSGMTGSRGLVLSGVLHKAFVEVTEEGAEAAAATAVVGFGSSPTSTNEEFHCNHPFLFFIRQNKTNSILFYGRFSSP
Briefly: proximity labelling; Bio-ID in PC9 cells stably expressing Flag-BirA-SERPINB3, 50 uM biotin for 24 h; RIPA lysis, streptavidin Dynabeads, mass spectrometry.

These are yes or no findings as the source states them, for the method shown. Binding seen in cells or lysates may run through a third protein. These calls come from enrichment with a bait or labelling near it, and not all partners need be listed. Sequences can lack the tags named with a protein.

With “nucleophosmin (NPM1), endogenous (from UniProt P06748 1-294)”, the binding entry is “binds”.
